No constants are given. Whether binding was seen depends on the method and setting. Some entries that bind do so weakly or less than the wild type. For part of these data: Where a sequence is shown, tags or fusion partners need not be part of it.
T1: human FAS-R (full receptor expressed in HeLa cells) (human), P25445
T1 chain: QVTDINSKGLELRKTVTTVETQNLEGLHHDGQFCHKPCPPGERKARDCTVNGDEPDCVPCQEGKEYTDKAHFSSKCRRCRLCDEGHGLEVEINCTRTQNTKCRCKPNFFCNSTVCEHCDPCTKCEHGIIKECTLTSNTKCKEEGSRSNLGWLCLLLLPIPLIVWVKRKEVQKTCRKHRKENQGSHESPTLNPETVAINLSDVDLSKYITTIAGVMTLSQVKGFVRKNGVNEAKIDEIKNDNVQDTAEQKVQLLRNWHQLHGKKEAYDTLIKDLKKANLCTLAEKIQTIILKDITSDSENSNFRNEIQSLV

T2: MORT-1 (FADD), human, full-length (human), Q13158
T2 chain: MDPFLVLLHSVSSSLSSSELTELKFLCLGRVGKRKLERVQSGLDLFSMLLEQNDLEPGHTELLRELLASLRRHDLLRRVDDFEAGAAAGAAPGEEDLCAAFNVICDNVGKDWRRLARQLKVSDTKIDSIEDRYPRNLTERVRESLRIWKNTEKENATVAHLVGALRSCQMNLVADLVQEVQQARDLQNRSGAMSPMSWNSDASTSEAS

B1: FLAG-MORT-1, Q13158 1-208 (protein, UniProt Q13158 1-208, looked up, not shown: small tags and cut ends)
chain: T2 chain
B2: MORT-1 (FADD), human, full-length, Q13158 1-208 (protein, UniProt Q13158 1-208, looked up)
chain: T2 chain

Experiments:
Details in all cases: remark: other sources report otherwise
[1] = target: T1, human FAS-R (full receptor expressed in …); assay: cross immunoprecipitation from co-transfected, 35S-labeled HeLa cells
[2] = target: T2, MORT-1 (FADD), human, full-length …; assay: yeast two-hybrid beta-galactosidase test
[3] = target: T2, MORT-1 (FADD), human, full-length …; assay: yeast two-hybrid screen of a human B cell library with MORT-1 as bait

| Binder | binding [1] | binding [2] | binding [3] |
| --- | --- | --- | --- |
| B1 | binds |  |  |
| B2 |  | binds | binds |

Source: patent US20040230039A1 (YEDA RESEARCH AND DEVELOPMENT, published 2004)
